Patent publication US20230021483A1, “[…] […] METHOD AND CLASSIFICATION OF PHARMACEUTICAL COMPONENTS BY USING TRANSCRIPTOMES” (National Institutes of Biomedical Innovation, Health and …, priority 2016, published 2023)
Some results were stated once for a whole list of compounds, not compound by compound.

System: LV, SP and LNs
Assay: Whole organ transcriptome across organs (adjuvant gene space): gene responses and adjuvant grouping
Format: in vivo, C57BL/6 mice
Conditions: 6 h after administration; for number of significantly differentially expressed genes (sDEGs) in at least one organ: at least one of LV, SP, LN; for number of significantly differentially expressed genes (sDEGs): volcano plot data, administered locally, FC >1.5 or <0.667, p<0.01, customized PA call 1

Molecule	number of significantly differentially expressed genes (sDEGs) in at least one organ [sDEGs]	number of significantly differentially expressed genes (sDEGs)
Cc1ccc2c(=O)c3cccc(CC(=O)O)c3oc2c1C [DMXAA, 5,6-dimethylxanthenone-4-acetic acid]	> 500	–
heptanoyl-γ-D-glutamyl-(L)-meso-diaminopimelyl-(D)-alanine [FK565]	> 500	–
Polyinosine-polycytidylic acid [PolyIC]	> 500	–
CC(O)COC[C@H]1O[C@@H]2O[C@H]3[C@H](O)[C@@H](O)[C@@H](O[C@H]4[C@H](O)[C@@H](O)[C@@H](O[C@H]5[C@H](O)[C@@H](O)[C@@H](O[C@H]6[C@H](O)[C@@H](O)[C@@H](O[C@H]7[C@H](O)[C@@H](O)[C@@H](O[C@H]8[C@H](O)[C@@H](O)[C@@H](O[C@H]1[C@H](O)[C@H]2O)O[C@@H]8COCC(C)O)O[C@@H]7COCC(C)O)O[C@@H]6COCC(C)O)O[C@@H]5COCC(C)O)O[C@@H]4COCC(C)O)O[C@@H]3COCC(C)O (stereo partly drawn) [bCD, Hydroxypropyl-beta-cyclodextrin]	–	100-200 sDEGs
D35: A class CpG ODN (5′-GGTGCATCGATGCAGGGGGG-3′), TLR9 ligand (DNA GGTGCATCGATGCAGGGGGG; chemistry not given here)	–	< 100 sDEGs
K3: B class CpG ODN (ATCGACTCTCGAGCGTTCTC), TLR9 ligand (chemistry not given here)	–	< 100 sDEGs
